# From article PMC5435352
# B1: Interleukin enhancer binding factor 3 (protein, UniProt Q12906 1-894)
# chain: MRPMRIFVNDDRHVMAKHSSVYPTQEELEAVQNMVSHTERALKAVSDWIDEQEKGSSEQAESDNMDVPPEDDSKEGAGEQKTEHMTRTLRGVMRVGLVAKGLLLKGDLDLELVLLCKEKPTTALLDKVADNLAIQLAAVTEDKYEILQSVDDAAIVIKNTKEPPLSLTIHLTSPVVREEMEKVLAGETLSVNDPPDVLDRQKCLAALASLRHAKWFQARANGLKSCVIVIRVLRDLCTRVPTWGPLRGWPLELLCEKSIGTANRPMGAGEALRRVLECLASGIVMPDGSGIYDPCEKEATDAIGHLDRQQREDITQSAQHALRLAAFGQLHKVLGMDPLPSKMPKKPKNENPVDYTVQIPPSTTYAITPMKRPMEEDGEEKSPSKKKKKIQKKEEKAEPPQAMNALMRLNQLKPGLQYKLVSQTGPVHAPIFTMSVEVDGNSFEASGPSKKTAKLHVAVKVLQDMGLPTGAEGRDSSKGEDSAEETEAKPAVVAPAPVVEAVSTPSAAFPSDATAEQGPILTKHGKNPVMELNEKRRGLKYELISETGGSHDKRFVMEVEVDGQKFQGAGSNKKVAKAYAALAALEKLFPDTPLALDANKKKRAPVPVRGGPKFAAKPHNPGFGMGGPMHNEVPPPPNLRGRGRGGSIRGRGRGRGFGGANHGGYMNAGAGYGSYGYGGNSATAGYSQFYSNGGHSGNASGGGGGGGGGSSGYGSYYQGDNYNSPVPPKHAGKKQPHGGQQKPSYGSGYQSHQGQQQSYNQSPYSNYGPPQGKQKGYNHGQGSYSYSNSYNSPGGGGGSDYNYESKFNYSGSGGRSGGNSYGSGGASYNPGSHGGYGGGSGGGSSYQGKQGGYSQSNYNSPGSGQNYSGPPSSYQSSQGGYGRNADHSMNYQYR
# Target: EVA71 3D viral polymerase (enterovirus A71 (strain 4643/TW/98))
# Assay: co-IP; lysates of EVA71-infected (MOI 10, 6 h) or mock-infected RD cells; IP with anti-3D or anti-UGGT1 antibody (mouse or rabbit IgG as control), Western blot; also with RNase A treatment of the lysate before the IP
binder,measurement,value
B1,binding,binds

# Results are given in words; binding and its absence hold for the method and conditions named. Binding seen in cells or lysates may run through a third protein. Binding can be weak; no strength is given.
